Measurements as given in patent US10227357B2, “Compounds and methods for kinase modulation, and indications therefor” (Plexxikon Inc., priority 2012, dated 2019).
Some of these results come from one statement about several compounds together.

Sequences of proteins named here, by UniProt entry; tags and fusion partners are left off.
UniProt P10721, whole entry D816V: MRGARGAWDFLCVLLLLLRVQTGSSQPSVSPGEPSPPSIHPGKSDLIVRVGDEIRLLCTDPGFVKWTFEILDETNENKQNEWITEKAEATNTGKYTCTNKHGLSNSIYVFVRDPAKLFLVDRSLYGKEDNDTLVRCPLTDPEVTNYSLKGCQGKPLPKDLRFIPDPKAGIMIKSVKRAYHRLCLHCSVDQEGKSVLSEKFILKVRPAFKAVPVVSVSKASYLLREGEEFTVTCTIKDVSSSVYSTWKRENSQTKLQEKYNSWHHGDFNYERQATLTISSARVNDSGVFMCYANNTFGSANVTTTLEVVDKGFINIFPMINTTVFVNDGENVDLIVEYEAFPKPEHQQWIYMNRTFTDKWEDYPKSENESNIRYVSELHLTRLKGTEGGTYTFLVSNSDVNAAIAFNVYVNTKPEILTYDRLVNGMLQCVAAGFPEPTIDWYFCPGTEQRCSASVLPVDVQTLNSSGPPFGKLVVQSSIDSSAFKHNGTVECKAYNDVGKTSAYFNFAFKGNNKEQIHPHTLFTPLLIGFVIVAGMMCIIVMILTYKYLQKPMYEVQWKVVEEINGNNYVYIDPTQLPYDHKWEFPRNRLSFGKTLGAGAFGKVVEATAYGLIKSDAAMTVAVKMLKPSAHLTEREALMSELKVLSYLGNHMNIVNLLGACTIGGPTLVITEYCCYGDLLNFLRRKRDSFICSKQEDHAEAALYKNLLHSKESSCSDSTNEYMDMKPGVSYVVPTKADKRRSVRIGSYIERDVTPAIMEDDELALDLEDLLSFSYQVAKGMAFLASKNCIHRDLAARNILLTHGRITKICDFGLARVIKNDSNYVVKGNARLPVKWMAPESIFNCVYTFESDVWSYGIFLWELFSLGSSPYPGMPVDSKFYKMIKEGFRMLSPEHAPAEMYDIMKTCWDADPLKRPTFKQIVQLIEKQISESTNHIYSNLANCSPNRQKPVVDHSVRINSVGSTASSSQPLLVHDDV

Target: BaF3-FL KIT D816V cells (Homo sapiens, UniProt P10721, D816V, cells depend on it, form not given)
Experiment: Cell-based assay of c-Kit mutant kinase activity, BaF3-FL KIT D816V cell proliferation (ATPlite)
Conditions: in at least one of the c-kit cell assays described in Example 28 (BaF3-FL KIT D816V or BaF3-FL KIT V560G/D816V); read-out: IC50 (the source's name)

| Compound | GI50 |
| --- | --- |
| Cn1cc(-c2cc3c(N4CCC(NS(=O)(=O)c5ccc(C6(C#N)CC6)cc5)CC4)ncnc3[nH]2)cn1 [P-0486, 4-(1-cyanocyclopropyl)-N-[1-[6-(1-methylpyrazol-4-yl)-7H-pyrrolo[2,3-d]pyrimidin-4-yl]-4-piperidyl]benzenesulfonamide] | < 10 µM |
| Cn1cc(-c2cc3c(N4CCC(NS(=O)(=O)N5CCCC5)CC4)ncnc3[nH]2)cn1 [P-0487, N-[1-[6-(1-methylpyrazol-4-yl)-7H-pyrrolo[2,3-d]pyrimidin-4-yl]-4-piperidyl]pyrrolidine-1-sulfonamide] | < 10 µM |
| Cn1cc(-c2cc3c(N4CCC(NS(=O)(=O)c5ccc(F)cc5)CC4)ncnc3[nH]2)cn1 [P-0490, 4-fluoro-N-[1-[6-(1-methylpyrazol-4-yl)-7H-pyrrolo[2,3-d]pyrimidin-4-yl]-4-piperidyl]benzenesulfonamide] | < 10 µM |
| Cn1cc(-c2cc3c(N4CCC(NS(=O)(=O)c5ccc(Cl)cc5)CC4)ncnc3[nH]2)cn1 [P-0491, 4-chloro-N-[1-[6-(1-methylpyrazol-4-yl)-7H-pyrrolo[2,3-d]pyrimidin-4-yl]-4-piperidyl]benzenesulfonamide] | < 10 µM |
| FC(F)(F)Oc1ccc(NC2CCN(c3ncnc4[nH]c(-c5ccncc5)cc34)CC2)cc1 [P-0492, 1-[6-(4-pyridyl)-7H-pyrrolo[2,3-d]pyrimidin-4-yl]-N-[4-(trifluoromethoxy)phenyl]piperidin-4-amine] | < 10 µM |
| Cn1cc(-c2cc3c(N4CCC(NS(=O)(=O)c5ccccc5OC(F)(F)F)CC4)ncnc3[nH]2)cn1 [P-0493, N-[1-[6-(1-methylpyrazol-4-yl)-7H-pyrrolo[2,3-d]pyrimidin-4-yl]-4-piperidyl]-2-(trifluoromethoxy)benzenesulfonamide] | < 10 µM |
| O=S(=O)(NC1CCN(c2ncnc3[nH]c(-c4ccc(Cl)cc4)cc23)CC1)c1ccccc1OC(F)(F)F [P-0494, N-[1-[6-(4-chlorophenyl)-7H-pyrrolo[2,3-d]pyrimidin-4-yl]-4-piperidyl]-2-(trifluoromethoxy)benzenesulfonamide] | < 10 µM |
| COc1ccc(S(=O)(=O)NC2CCN(c3ncnc4[nH]c(-c5ccc(Cl)cc5)cc34)CC2)cc1 [P-0495, N-[1-[6-(4-chlorophenyl)-7H-pyrrolo[2,3-d]pyrimidin-4-yl]-4-piperidyl]-4-methoxy-benzenesulfonamide] | < 10 µM |
| COc1ccc(S(=O)(=O)NC2CCN(c3ncnc4[nH]c(-c5cnn(C)c5)cc34)CC2)cc1 [P-0496, 4-methoxy-N-[1-[6-(1-methylpyrazol-4-yl)-7H-pyrrolo[2,3-d]pyrimidin-4-yl]-4-piperidyl]benzenesulfonamide] | < 10 µM |
| Cn1cc(-c2cc3c(N4CCC(NS(=O)(=O)c5ccc(OC(F)(F)F)cc5)CC4)ncnc3[nH]2)cn1 [P-0497, N-[1-[6-(1-methylpyrazol-4-yl)-7H-pyrrolo[2,3-d]pyrimidin-4-yl]-4-piperidyl]-4-(trifluoromethoxy)benzenesulfonamide] | < 10 µM |
| O=S(=O)(NC1CCN(c2ncnc3[nH]c(-c4ccc(Cl)cc4)cc23)CC1)c1ccc(OC(F)(F)F)cc1 [P-0498, N-[1-[6-(4-chlorophenyl)-7H-pyrrolo[2,3-d]pyrimidin-4-yl]-4-piperidyl]-4-(trifluoromethoxy)benzenesulfonamide] | < 10 µM |
| O=S(=O)(NC1CCN(c2ncnc3[nH]c(-c4ccc(Cl)cc4)cc23)CC1)c1cccc(OC(F)(F)F)c1 [P-0499, N-[1-[6-(4-chlorophenyl)-7H-pyrrolo[2,3-d]pyrimidin-4-yl]-4-piperidyl]-3-(trifluoromethoxy)benzenesulfonamide] | < 10 µM |
| Cn1cc(-c2cc3c(N4CCC(NS(=O)(=O)c5cccc(OC(F)(F)F)c5)CC4)ncnc3[nH]2)cn1 [P-0500, N-[1-[6-(1-methylpyrazol-4-yl)-7H-pyrrolo[2,3-d]pyrimidin-4-yl]-4-piperidyl]-3-(trifluoromethoxy)benzenesulfonamide] | < 10 µM |
